Source: patent US20230265524A1, “IMMUNOGENIC RETROELEMENTS AND THEIR USE IN CANCER THERAPY” (UNIVERSITY HEALTH NETWORK, priority 2020, published 2023)
At least one compound was matched to its structure with a doubt left.

Key:
dsRNA = dsRNA quantification by J2/DAPI staining, confocal microscopy; assay type: cell-based, human; conditions: 250 nM, 7 days
[1] = system: ISGs (ISG15, DDX58 and IRF7); assay: qPCR of ISGs in cells treated with palbociclib; assay type: cell-based, human; conditions: ADAR1 knockdown plus 250 nM palbociclib

For `CC(=O)c1c(C)c2cnc(Nc3ccc(N4CCNCC4)cn3)nc2n(C2CCCC2)c1=O` [palbociclib], the “accumulation of dsRNA in the cytosol” value (dsRNA; ADAR1-depleted cells) was “stronger accumulation of dsRNA”, the “accumulation of dsRNA” value (dsRNA; wild-type CRC cells) was “small accumulation of dsRNA” and the “up-regulation of interferon-stimulated genes” value [1] was “synergistic up-regulation”.
